Patent publication US20220347194A1, “METHODS AND COMPOSITIONS FOR TREATING PAIN AND OTHER EPH RECEPTOR-ASSOCIATED CONDITIONS” (THE BOARD OF REGENTS OF THE UNIVERSITY OF TEXAS SYSTEM, priority 2019, published 2022)
For at least one compound, name, drawing or mass did not settle the structure.

Molecular target: T1, EphB1 kinase domain (Homo sapiens, UniProt P54762)
T1 sequence (P54762 619-882 limits assumed): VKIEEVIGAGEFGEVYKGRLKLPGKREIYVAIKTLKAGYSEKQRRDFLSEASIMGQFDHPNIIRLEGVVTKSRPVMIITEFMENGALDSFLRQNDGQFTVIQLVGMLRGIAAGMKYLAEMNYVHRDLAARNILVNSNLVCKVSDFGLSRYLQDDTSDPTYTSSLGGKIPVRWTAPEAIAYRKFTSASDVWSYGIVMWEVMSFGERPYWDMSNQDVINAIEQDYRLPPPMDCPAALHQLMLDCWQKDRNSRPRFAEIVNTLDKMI
Experiment: Radiometric protein kinase assay (33PanQinase Activity Assay), EphB1
Settings: concentrations up to 100 μM

COc1ccc2c3c1O[C@H]1C[C@@H](O)C=C[C@@]31CCN(C)C2 [galantamine]
inhibition of EphB1 kinase activity: failed to inhibit
